Laboratory results reported in patent US20240002445A1 (The United States of America,as represented by the …, priority 2020, published 2024).

Assay: general procedure: Fmoc solid-phase peptide synthesis; 2-Cl-(Trt)-Cl (hydrazine-derivatised for the N-terminal fragment); HBTU/DIPEA
Conditions: whole synthesis, scale of the general procedure 0.5 mmol (N-terminal fragment), 0.25 mmol (C-terminal fragme)

recifin A
outcome: Recombinant production of recifin A in E. coli failed to produce an active protein, and recifin A and analogues thereof could not successfully be assembled in one fragment using Fmoc solid phase pepti
